Assay results reported in PubChem BioAssay AID252 (DTP/NCI, 2004).
The list shows only some results of the screen, not a fair sample: it is rich in T/C values a quarter to a half above the control, in often repeated tests (any T/C) and in doses without a T/C. Other doses and runs of a compound stand elsewhere. T/C is the treated group as % of the vehicle group. Some entries give survivors of the animals treated and no T/C: the source files T/C as zero there, which appears to mark a toxic dose or a test without result, not a measured value. Some doses without a T/C left all or most animals alive at the check, yet need not have been tolerated: survival well below the control is almost never listed, so the zero probably covers shortened survival too. Survivors were counted at the toxicity check, usually on the fifth day, unless a day is given; later deaths do not show. Schedule codes are those of the source, read here as Q, the interval in days (D) or hours (H), X, the number of doses. Some schedules carry Z or #; the key to these is not given. For survival time, this PubChem deposit counts one and a half times the control or more as active, and values a quarter to a half above the control carry no call in these data; other NCI protocols may use other cut-offs. Signs of the kind (2×) give the number of equal values in this list. Some doses were run more than once; the results are listed from low to high. Some T/C values carry the count of animals alive at the toxicity check (mostly the fifth day); where none is given, no animal had died by that day.

System: BDF1 mice, intracerebral L1210 leukemia, survival T/C
Assay: NCI In Vivo Anticancer Drug Screen. Data for tumor model L1210 Leukemia (intracerebral) in B6D2F1 (BDF1) mice
Conditions: higher T/C = longer survival
Procedure, shortened: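 Tumour was transplanted, animals received compound or vehicle, then survival in each group was measured and treated divided by control.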

[1] = T/C endpoint: mean survival time, dose: 160.0 mg/kg/injection, schedule: Q01DX001 (ip), vehicle: carboxymethylcellulose (CMC)
[2] = T/C endpoint: mean survival time, dose: 240.0 mg/kg/injection, schedule: Q01DX001 (ip), vehicle: carboxymethylcellulose (CMC)

## CC[n+]1ccc(Nc2ccc(NC(=O)c3ccc(Nc4cc[n+](CC)c5ccc(N)cc45)cc3)cc2)cc1
T/C endpoint: mean survival time, dose: 16.0 mg/kg/injection, schedule: Q01DX009 (ip), vehicle: water
  survivor count: 1 of 10

## O=NN(CCCl)C(=O)NC1CCC(C(=O)O)CC1 (stereo not drawn)
T/C endpoint: mean survival time, dose: 12.0 mg/kg/injection, schedule: Q01DX001 (ip), vehicle: saline with Tween-80
  T/C: 128 % of control (2×)
T/C endpoint: mean survival time, dose: 18.0 mg/kg/injection, schedule: Q01DX001 (ip), vehicle: saline with Tween-80
  T/C: 126 and 134 % of control

## O=C(Nc1ccc(C2=NCCCN2)cc1)c1ccc(C(=O)Nc2ccc(C3=NCCCN3)cc2)cc1
T/C endpoint: mean survival time, dose: 10.0 mg/kg/injection, schedule: Q01DX Z (ip), vehicle: carboxymethylcellulose (CMC)
  T/C: 125 % of control
T/C endpoint: mean survival time, dose: 20.0 mg/kg/injection, schedule: Q01DX Z (ip), vehicle: carboxymethylcellulose (CMC)
  survivor count: 1 of 6
T/C endpoint: mean survival time, dose: 62.0 mg/kg/injection, schedule: Q01DX Z (ip), vehicle: carboxymethylcellulose (CMC)
  survivor count: 1 of 6
T/C endpoint: mean survival time, dose: 125.0 mg/kg/injection, schedule: Q01DX Z (ip), vehicle: carboxymethylcellulose (CMC)
  survivor count: 0 of 6
T/C endpoint: mean survival time, dose: 250.0 mg/kg/injection, schedule: Q01DX Z (ip), vehicle: carboxymethylcellulose (CMC)
  survivor count: 0 of 6
T/C endpoint: mean survival time, dose: 500.0 mg/kg/injection, schedule: Q01DX Z (ip), vehicle: carboxymethylcellulose (CMC)
  survivor count: 0 of 6

## O=NN(CCCl)C(=O)NC1CCS(=O)(=O)C1 (stereo not drawn) (tested in a mixture with another compound)
T/C endpoint: mean survival time, dose: 7.0 mg/kg/injection, schedule: Q01DX001 (ip), vehicle: other
  T/C: 131 % of control
T/C endpoint: mean survival time, dose: 11.0 mg/kg/injection, schedule: Q01DX001 (ip), vehicle: other
  T/C: 143 % of control
T/C endpoint: mean survival time, dose: 24.0 mg/kg/injection, schedule: Q01DX001 (ip), vehicle: other
  T/C: 133 % of control
T/C endpoint: mean survival time, dose: 32.0 mg/kg/injection, schedule: Q01DX001 (oral), vehicle: other
  T/C: 148 % of control
T/C endpoint: mean survival time, dose: 72.0 mg/kg/injection, schedule: Q01DX001 (oral), vehicle: other
  T/C: 125 % of control

## N#CCCNC(=O)N(CCC#N)N=O
T/C endpoint: mean survival time, dose: 375.0 mg/kg/injection, schedule: Q01DX001 (ip), vehicle: carboxymethylcellulose (CMC)
  survivor count: 2 of 10
T/C endpoint: mean survival time, dose: 562.0 mg/kg/injection, schedule: Q01DX001 (ip), vehicle: carboxymethylcellulose (CMC)
  survivor count: 3 of 10

## O=NN(CCF)C(=O)NCCF
T/C endpoint: mean survival time, dose: 1.75 mg/kg/injection, schedule: Q01DX001 (ip), vehicle: saline
  T/C: 132 % of control
T/C endpoint: mean survival time, dose: 12.0 mg/kg/injection, schedule: Q01DX001 (ip), vehicle: saline
  survivor count: 1 of 10
T/C endpoint: mean survival time, dose: 18.0 mg/kg/injection, schedule: Q01DX001 (ip), vehicle: saline
  survivor count: 0 of 10
T/C endpoint: mean survival time, dose: 28.0 mg/kg/injection, schedule: Q01DX001 (ip), vehicle: saline
  survivor count: 2 of 10

## O=NN(CCCl)C(=O)NC1CCC(NC(=O)N(CCCl)N=O)CC1 (stereo not drawn)
T/C endpoint: mean survival time, dose: 23.0 mg/kg/injection, schedule: Q01DX001 (ip), vehicle: other
  T/C: 136 and 139 % of control
T/C endpoint: mean survival time, dose: 38.0 mg/kg/injection, schedule: Q01DX001 (oral), vehicle: other
  T/C: 145 % of control
T/C endpoint: mean survival time, dose: 63.0 mg/kg/injection, schedule: Q01DX001 (ip), vehicle: carboxymethylcellulose (CMC)
  T/C: 140 % of control
T/C endpoint: mean survival time, dose: 84.0 mg/kg/injection, schedule: Q01DX001 (oral), vehicle: other
  T/C: 131 % of control
T/C endpoint: mean survival time, dose: 171.0 mg/kg/injection, schedule: Q01DX001 (oral), vehicle: other
  T/C: 141 % of control
T/C endpoint: mean survival time, dose: 383.0 mg/kg/injection, schedule: Q01DX001 (ip), vehicle: other
  survivor count: 10 of 10

## O=C1C(N2CC2)=C(N2CC2)C(=O)C(N2CC2)=C1N1CC1
T/C endpoint: mean survival time, dose: 0.08 mg/kg/injection, schedule: Q01DX009 (ip), vehicle: saline
  T/C: 127 % of control

## O=C1C(NCC(O)CO)=C(N2CC2)C(=O)C(NCC(O)CO)=C1N1CC1 (stereo not drawn)
T/C endpoint: mean survival time, dose: 3.0 mg/kg/injection, schedule: Q01DX009 (ip), vehicle: saline
  T/C: 138 % of control
T/C endpoint: mean survival time, dose: 4.0 mg/kg/injection, schedule: Q01DX009 (ip), vehicle: saline
  T/C: 132 % of control
T/C endpoint: mean survival time, dose: 6.0 mg/kg/injection, schedule: Q01DX009 (ip), vehicle: saline
  T/C: 130 % of control

## O=NN(CCCl)C(=O)N[C@@H]1CCCC[C@H]1NC(=O)N(CCCl)N=O
T/C endpoint: mean survival time, dose: 67.0 mg/kg/injection, schedule: Q01DX001 (ip), vehicle: carboxymethylcellulose (CMC)
  T/C: 129 % of control
T/C endpoint: mean survival time, dose: 72.0 mg/kg/injection, schedule: Q01DX001 (ip), vehicle: carboxymethylcellulose (CMC)
  T/C: 133 % of control
T/C endpoint: mean survival time, dose: 100.0 mg/kg/injection, schedule: Q01DX001 (ip), vehicle: carboxymethylcellulose (CMC)
  T/C: 138 % of control
T/C endpoint: mean survival time, dose: 108.0 mg/kg/injection, schedule: Q01DX001 (ip), vehicle: carboxymethylcellulose (CMC)
  T/C: 133 and 134 % of control
T/C endpoint: mean survival time, dose: 150.0 mg/kg/injection, schedule: Q01DX001 (ip), vehicle: carboxymethylcellulose (CMC)
  T/C: 146 % of control
[1]
  T/C: 129 and 135 % of control
T/C endpoint: mean survival time, dose: 225.0 mg/kg/injection, schedule: Q01DX001 (ip), vehicle: carboxymethylcellulose (CMC)
  T/C: 138, 147, 148 % of control
[2]
  T/C: 141 % of control
T/C endpoint: mean survival time, dose: 337.0 mg/kg/injection, schedule: Q01DX001 (ip), vehicle: carboxymethylcellulose (CMC)
  survivor count: 6 of 6
T/C endpoint: mean survival time, dose: 360.0 mg/kg/injection, schedule: Q01DX001 (ip), vehicle: carboxymethylcellulose (CMC)
  T/C: 140 and 148 % of control
T/C endpoint: mean survival time, dose: 536.0 mg/kg/injection, schedule: Q01DX001 (ip), vehicle: carboxymethylcellulose (CMC)
  survivor count: 6 of 6
T/C endpoint: mean survival time, dose: 804.0 mg/kg/injection, schedule: Q01DX001 (ip), vehicle: carboxymethylcellulose (CMC)
  survivor count: 1 of 6

## O=c1[nH]cc(N(CCCl)CCCl)c(=O)[nH]1
T/C endpoint: mean survival time, dose: 1.7 mg/kg/injection, schedule: Q01DX015 (ip), vehicle: carboxymethylcellulose (CMC)
  T/C: 127 % of control

## CC1CC(NC(=O)N(CCCl)N=O)CC(C)(C)C1 (stereo not drawn)
T/C endpoint: mean survival time, dose: 1000.0 mg/kg/injection, schedule: Q01DX001 (ip), vehicle: other
  survivor count: 4 of 10

## COc1cc(NS(C)(=O)=O)ccc1Nc1c2ccc([N+](=O)[O-])cc2nc2c(C)cccc12
T/C endpoint: mean survival time, dose: 10.0 mg/kg/injection, schedule: Q01DX009 (ip), vehicle: saline
  survivor count: 10 of 10
T/C endpoint: mean survival time, dose: 20.0 mg/kg/injection, schedule: Q01DX009 (ip), vehicle: saline
  survivor count: 4 of 10
T/C endpoint: mean survival time, dose: 20.0 mg/kg/injection, schedule: Q01DX009 (sc), vehicle: saline
  survivor count: 8 of 10

## O=NN(CCCl)C(=O)Nc1ccc2ccccc2c1
T/C endpoint: mean survival time, dose: 450.0 mg/kg/injection, schedule: Q01DX001 (ip), vehicle: carboxymethylcellulose (CMC)
  survivor count: 5 of 10

## O=c1[nH]c(=O)n(C2CC(O)C(CO)O2)cc1F (stereo not drawn)
T/C endpoint: mean survival time, dose: 55.0 mg/kg/injection, schedule: Q01DX015 (ip), vehicle: saline
  T/C: 126 % of control
T/C endpoint: mean survival time, dose: 126.0 mg/kg/injection, schedule: Q01DX015 (ip), vehicle: saline
  T/C: 143 % of control

## O=NN(CCCl)C(=O)Nc1ccc(NC(=O)N(CCCl)N=O)cc1
T/C endpoint: mean survival time, dose: 150.0 mg/kg/injection, schedule: Q01DX009 (ip), vehicle: carboxymethylcellulose (CMC)
  T/C: 128 % of control
[1]
  T/C: 131 and 137 % of control
[2]
  T/C: 135 and 147 % of control

## O=c1[nH]c(=O)n([C@H]2CCCO2)cc1F
T/C endpoint: median survival time, dose: 108.0 mg/kg/injection, schedule: Q01DX009 (ip), vehicle: water
  survivor count: 8 of 8
T/C endpoint: median survival time, dose: 300.0 mg/kg/injection, schedule: Q04DX003 (ip), vehicle: water
  T/C: 125 % of control [6 of 8 alive]
T/C endpoint: median survival time, dose: 500.0 mg/kg/injection, schedule: Q04DX003 (ip), vehicle: water
  T/C: 138 % of control
T/C endpoint: median survival time, dose: 833.0 mg/kg/injection, schedule: Q04DX003 (ip), vehicle: water
  survivor count: 7 of 8

## CN(C)C(=O)c1ccc(NC(=O)N(CCCl)N=O)cc1
T/C endpoint: mean survival time, dose: 12.0 mg/kg/injection, schedule: Q01DX001 (ip), vehicle: other
  T/C: 129 % of control [5 of 6 alive]
T/C endpoint: mean survival time, dose: 16.0 mg/kg/injection, schedule: Q01DX001 (ip), vehicle: other
  T/C: 125 % of control

## N#[N+]c1cnc([O-])[nH]c1=O
T/C endpoint: mean survival time, dose: 30.0 mg/kg/injection, schedule: Q01DX Z (ip), vehicle: alkali diluted with saline
  survivor count: 6 of 6
T/C endpoint: mean survival time, dose: 35.0 mg/kg/injection, schedule: Q01DX Z (ip), vehicle: alkali diluted with saline
  survivor count: 5 of 6

## c1nc(SSc2ncnc3nc[nH]c23)c2[nH]cnc2n1
T/C endpoint: mean survival time, dose: 25.0 mg/kg/injection, schedule: Q04DX003 (ip), vehicle: Klucel (hydroxypropylcellulose) (HPC)
  T/C: 133 % of control
T/C endpoint: mean survival time, dose: 50.0 mg/kg/injection, schedule: Q04DX003 (ip), vehicle: Klucel (hydroxypropylcellulose) (HPC)
  T/C: 146 % of control
